In article PMC5677968, “Familial STAG2 germline mutation defines a new human cohesinopathy” (NPJ Genomic Medicine, 2017):
Results are given in words; binding and its absence hold for the method and conditions named. Binding seen in cells or lysates may run through a third protein. Some entries that bind do so weakly or less than the wild type. Where a sequence is shown, tags or fusion partners need not be part of it.

How the values were obtained:
[1] = molecular target: T1, GST-SGO1(302–367) T346E (human) (UniProt Q5FBB7); test: pull-down; GST-SGO1(302–367) T346E or GST-WAPL(410–590) on Glutathione Sepharose 4B beads, incubated with the in vitro translated 35S-STAG2–SCC1(211–420) complex at 4 °C for 2 h; washed four times with TBS, 0.05% Tween 20; SDS-PAGE, phosphoimager; only the target purified
T1 sequence: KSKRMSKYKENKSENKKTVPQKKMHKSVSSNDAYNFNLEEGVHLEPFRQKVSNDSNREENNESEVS

[2] = molecular target: T2, GST-WAPL(410–590) (human) (UniProt Q7Z5K2); test: as above
T2 sequence: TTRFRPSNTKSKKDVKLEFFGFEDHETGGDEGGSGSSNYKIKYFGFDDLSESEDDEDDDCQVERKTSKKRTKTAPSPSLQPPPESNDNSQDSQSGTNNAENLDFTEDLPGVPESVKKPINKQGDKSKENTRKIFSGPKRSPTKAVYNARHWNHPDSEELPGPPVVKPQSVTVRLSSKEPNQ

binding [1]: binds
binding [2]: binds
B1: 35S-labeled STAG2 p.Ser327Asn–SCC1(211–420) complex (complex, UniProt Q8N3U4-2 1-1268; O60216 211-420)
chain 1: MIAAPEIPTDFNLLQESETHFSSDTDFEDIEGKNQKQGKGKTCKKGKKGPAEKGKGGNGGGKPPSGPNRMNGHHQQNGVENMMLFEVVKMGKSAMQSVVDDWIESYKHDRDIALLDLINFFIQCSGCKGVVTAEMFRHMQNSEIIRKMTEEFDEDSGDYPLTMAGPQWKKFKSSFCEFIGVLVRQCQYSIIYDEYMMDTVISLLTGLSDSQVRAFRHTSTLAAMKLMTALVNVALNLSINMDNTQRQYEAERNKMIGKRANERLELLLQKRKELQENQDEIENMMNAIFKGVFVHRYRDAIAEIRAICIEEIGIWMKMYSDAFLNDNYLKYVGWTMHDKQGEVRLKCLTALQGLYYNKELNSKLELFTSRFKDRIVSMTLDKEYDVAVQAIKLLTLVLQSSEEVLTAEDCENVYHLVYSAHRPVAVAAGEFLYKKLFSRRDPEEDGMMKRRGRQGPNANLVKTLVFFFLESELHEHAAYLVDSMWDCATELLKDWECMNSLLLEEPLSGEEALTDRQESALIEIMLCTIRQAAECHPPVGRGTGKRVLTAKEKKTQLDDRTKITELFAVALPQLLAKYSVDAEKVTNLLQLPQYFDLEIYTTGRLEKHLDALLRQIRNIVEKHTDTDVLEACSKTYHALCNEEFTIFNRVDISRSQLIDELADKFNRLLEDFLQEGEEPDEDDAYQVLSTLKRITAFHNAHDLSKWDLFACNYKLLKTGIENGDMPEQIVIHALQCTHYVILWQLAKITESSSTKEDLLRLKKQMRVFCQICQHYLTNVNTTVKEQAFTILCDILMIFSHQIMSGGRDMLEPLVYTPDSSLQSELLSFILDHVFIEQDDDNNSADGQQEDEASKIEALHKRRNLLAAFCKLIVYTVVEMNTAADIFKQYMKYYNDYGDIIKETMSKTRQIDKIQCAKTLILSLQQLFNEMIQENGYNFDRSSSTFSGIKELARRFALTFGLDQLKTREAIAMLHKDGIEFAFKEPNPQGESHPPLNLAFLDILSEFSSKLLRQDKRTVYVYLEKFMTFQMSLRREDVWLPLMSYRNSLLAGGDDDTMSVISGISSRGSTVRSKKSKPSTGKRKVVEGMQLSLTEESSSSDSMWLSREQTLHTPVMMQTPQLTSTIMREPKRLRPEDSFMSVYPMQTEHHQTPLDYNTQVTWMLAQRQQEEARQQQERAAMSYVKLRTNLQHAIRRGTSLMEDDEEPIVEDVMMSSEGRIEDLNEGMDFDTMDIDLPPSKNRRERTELKPDFFDPASIMDESVLGVSMF
chain 2: YEDQYKDDNFGEGNDGGILDDKLISNNDGGIFDDPPALSEAGVMLPEQPAHDDMDEDDNVSMGGPDSPDSVDPVEPMPTMTDQTTLVPNEEEAFALEPIDITVKETKAKRKRKLIVDSVKELDSKTIRAQLSDYSDIVTTLDLAPPTKKLMMWKETGGVEKLFSLPAQPLWNNRLLKLFTRCLTPLVPEDLRKRRKGGEADNLDEFLKEF
modifications: 35S-methionine label | 35S-methionine label
